Reference: PubChem BioAssay AID1259308 (NCATS, 2017)
This is an unselected part of about 59,000 reagents tested. About 1,510 of all reagents (2.6%) count as active. 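Calls use total luciferase alone and ignore viability, so some active siRNAs may act by altering cell number.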 The numbers tell different reagents against one gene apart.

Test: 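Candidate targets for better recombinant protein yield in mammalian cells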 (primary screen)
Cells: human HEK293 embryonic kidney cells stably expressing firefly luciferase (HEK-CMV-Luc2-Hygro)
Knock-down reagent: single siRNA against human genes, 0.8 pmol siRNA per well
Duration: 72 h
Measurement: 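Reporter luminescence and viable-cell signal on separate replicate plates, given as percent of non-targeting control and median/MAD z-scores, plus per-cell luciferase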
Scale: total luciferase, z-score and total luciferase, % of control: higher = more reporter protein produced; luciferase per cell, z-score: higher = more reporter output per viable cell; viable cells, % of control: higher = more viable cells
Active means: 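An siRNA counts as active if its total luciferase robust z-score exceeds 3; genes with two or more such siRNAs out of three were retested with fresh siRNAs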
Meaning of the calls: active = raised luciferase; inactive = no rise

| Target gene | reagent no. | total luciferase, z-score | total luciferase, % of control | luciferase per cell, z-score | viable cells, % of control | activity call |
| --- | --- | --- | --- | --- | --- | --- |
| SLC28A3 (GeneID 64078) | 1 | 0.338 | 88.6 | 0.251 | 92.7 | inactive |
| SLC28A3 (GeneID 64078) | 2 | -0.534 | 71.3 | -0.471 | 90.1 | inactive |
| SLC28A3 (GeneID 64078) | 3 | -0.726 | 67.5 | -1.03 | 99 | inactive |
| RPS23 (GeneID 6228) | 1 | -1.67 | 48.6 | -0.0773 | 55.4 | inactive |
| RPS23 (GeneID 6228) | 2 | -1.93 | 43.5 | -1.22 | 66.9 | inactive |
| RPS23 (GeneID 6228) | 3 | -2.72 | 27.8 | -2.85 | 65.7 | inactive |
| ADAMTS16 (GeneID 170690) | 1 | -0.467 | 72.6 | -0.361 | 89.2 | inactive |
| ADAMTS16 (GeneID 170690) | 2 | -0.618 | 69.6 | -0.518 | 89.1 | inactive |
| ADAMTS16 (GeneID 170690) | 3 | -0.2 | 77.9 | -0.856 | 109 | inactive |
| ATF4 (GeneID 468) | 1 | -1.82 | 45.7 | -1.06 | 67.4 | inactive |
| ATF4 (GeneID 468) | 2 | -2.26 | 36.9 | -2.32 | 75.8 | inactive |
| ATF4 (GeneID 468) | 3 | -1.56 | 50.9 | -0.768 | 69.6 | inactive |
| NKX2-2 (GeneID 4821) | 1 | -0.994 | 62.1 | -1.18 | 94.8 | inactive |
| NKX2-2 (GeneID 4821) | 2 | 0.0163 | 82.2 | -0.442 | 103 | inactive |
| NKX2-2 (GeneID 4821) | 3 | 1.91 | 120 | 1.59 | 88.1 | inactive |
| ARHGAP20 (GeneID 57569) | 1 | 0.105 | 84 | 0.337 | 85.9 | inactive |
| ARHGAP20 (GeneID 57569) | 2 | 0.422 | 90.3 | 0.355 | 91.9 | inactive |
| ARHGAP20 (GeneID 57569) | 3 | 0.795 | 97.7 | 1.45 | 74.6 | inactive |

Next part (5 carried over from the part before).
| Target gene | reagent no. | total luciferase, z-score | total luciferase, % of control | luciferase per cell, z-score | viable cells, % of control | activity call |
| --- | --- | --- | --- | --- | --- | --- |
| NKX2-2 (GeneID 4821) | 2 | 0.0163 | 82.2 | -0.442 | 103 | inactive |
| NKX2-2 (GeneID 4821) | 3 | 1.91 | 120 | 1.59 | 88.1 | inactive |
| ARHGAP20 (GeneID 57569) | 1 | 0.105 | 84 | 0.337 | 85.9 | inactive |
| ARHGAP20 (GeneID 57569) | 2 | 0.422 | 90.3 | 0.355 | 91.9 | inactive |
| ARHGAP20 (GeneID 57569) | 3 | 0.795 | 97.7 | 1.45 | 74.6 | inactive |
| DYNLT1 (GeneID 6993) | 1 | 0.76 | 97 | 0.399 | 97.6 | inactive |
| DYNLT1 (GeneID 6993) | 2 | -0.0959 | 80 | 0.162 | 85.6 | inactive |
| DYNLT1 (GeneID 6993) | 3 | -0.544 | 71.1 | -0.533 | 91.4 | inactive |
| PDLIM2 (GeneID 64236) | 1 | 0.894 | 99.7 | 1.27 | 79.6 | inactive |
| PDLIM2 (GeneID 64236) | 2 | -1.8 | 46.2 | -1.97 | 86.7 | inactive |
| PDLIM2 (GeneID 64236) | 3 | 0.00386 | 82 | 0.0564 | 90.2 | inactive |
| HERC2P3 (GeneID 283755) | 1 | -0.762 | 66.7 | -0.868 | 93.7 | inactive |
| HERC2P3 (GeneID 283755) | 2 | -0.891 | 64.2 | -0.764 | 87.7 | inactive |
| HERC2P3 (GeneID 283755) | 3 | -0.0444 | 81 | -0.274 | 97.3 | inactive |
| ZC3H12D (GeneID 340152) | 1 | 0.6 | 93.8 | -0.246 | 112 | inactive |
| ZC3H12D (GeneID 340152) | 2 | 0.397 | 89.8 | 0.572 | 86.3 | inactive |
| ZC3H12D (GeneID 340152) | 3 | 0.0438 | 82.8 | -0.15 | 96.2 | inactive |
| PPCS (GeneID 79717) | 1 | 0.376 | 89.4 | -0.142 | 104 | inactive |
| PPCS (GeneID 79717) | 2 | -0.484 | 72.3 | -1.01 | 105 | inactive |
| PPCS (GeneID 79717) | 3 | 0.643 | 94.7 | 0.837 | 84.9 | inactive |
| CDCA7L (GeneID 55536) | 1 | -0.185 | 78.2 | 0.0699 | 85.8 | inactive |
| CDCA7L (GeneID 55536) | 2 | -1.07 | 60.6 | -0.526 | 77.7 | inactive |
| CDCA7L (GeneID 55536) | 3 | 0.986 | 102 | 0.75 | 93.1 | inactive |
| KCNIP1 (GeneID 30820) | 1 | 0.279 | 87.4 | 0.187 | 93 | inactive |
| KCNIP1 (GeneID 30820) | 2 | 1.69 | 116 | 2.12 | 73.9 | inactive |
| KCNIP1 (GeneID 30820) | 3 | -0.392 | 74.1 | -0.468 | 93.7 | inactive |
